This is an account of results in the supplement of paper PMC10849652.

Chains of the proteins cited; added tags and fusions are not shown. Lines headed by an entry give the natural chain unless they say otherwise; changes in a name come on top.
UniProt Q9P1U0, whole entry, looked up: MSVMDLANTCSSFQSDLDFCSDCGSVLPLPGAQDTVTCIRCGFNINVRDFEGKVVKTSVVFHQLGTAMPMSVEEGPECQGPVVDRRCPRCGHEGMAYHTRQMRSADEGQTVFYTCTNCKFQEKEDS
UniProt O60232: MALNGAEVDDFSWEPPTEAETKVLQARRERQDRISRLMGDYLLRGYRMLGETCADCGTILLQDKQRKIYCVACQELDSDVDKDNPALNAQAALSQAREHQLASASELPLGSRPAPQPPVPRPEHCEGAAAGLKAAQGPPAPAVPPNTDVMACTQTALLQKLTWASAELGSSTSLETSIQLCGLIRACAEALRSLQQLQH

Some of the results follow.

In the first experiment the target is ZNRD1 (UniProt Q9P1U0). Briefly: log2 fold change, soluble protein after heating vs DMSO (PISA); higher = thermal stabilisation; K562 cells, 10 uM, 30 min; active = over 0.2 and 3.5 SD of the protein, either way, in both replicates (recomputed). Summed up: (§1)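 K562 cells at 2×10^6 cells/mL were exposed to 10 μM compound for 30 min, then aliquots were heated for 3 min across 48°C-58°C, pooled, and extracted in PBS containing 0.5% NP-40 at 4°C. The supernatant after 21,000xg for 90 min was taken as soluble protein and measured by TMTpro 16plex LC-MS/MS with channel sums equalised. Thermal stability is reported relative to control samples, with values from duplicates. Fold changes are given on a log2 scale.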
Consider `Fc1ccc(Cl)cc1-c1nc(Nc2ccncc2)c2nccnc2n1`, for which the log2 fold change is inactive: 0.079.

Take `CN1CCc2c(c3ccccc3n2Cc2ccc(C(=O)NO)cc2)C1` [Tubastatin A]: the log2 fold change was inactive: -0.11.

Take `CC1=C(C(=O)Nc2cc3cn[nH]c3cc2F)C(c2ccc(C(F)(F)F)cc2)CC(=O)N1` (configuration not stated): the log2 fold change was inactive: 0.237.

For the compound `Cc1nc(Nc2n[nH]c3c2CN(C(=O)N[C@H](CN(C)C)c2ccccc2)C3(C)C)c2sccc2n1`, the log2 fold change is inactive: 0.036.

As to `CNC(=O)c1ccccc1Nc1nc(Nc2ccc(N3CCOCC3)cc2OC)ncc1Cl`, the log2 fold change is inactive: 0.057.

In the case of `CCCCN(Cc1ccc(C(=O)NO)cc1)C(=O)Nc1ccccc1` [Nexturastat A], the log2 fold change was inactive: -0.049.

Regarding `Cc1nc(Nc2ncc(C(=O)Nc3c(C)cccc3Cl)s2)cc(N2CCN(CCO)CC2)n1` [dasatinib], the log2 fold change was inactive: 0.29.

On to `Cc1ccc2c(=O)c3ccccc3n(CCCN)c2c1C`, for which the log2 fold change is inactive: -0.185.

Take `CN1CCN(CCOc2cc(OC3CCOCC3)c3c(Nc4c(Cl)ccc5c4OCO5)ncnc3c2)CC1` [saracatinib]: the log2 fold change was inactive: 0.059.

Regarding `C[C@@H]1COCCN1c1cc(C2(S(C)(=O)=O)CC2)nc(-c2cccc3[nH]ccc23)n1`, the log2 fold change was inactive: -0.172.

For the compound `Cc1cn(-c2cc(NC(=O)c3ccc(C)c(Nc4nccc(-c5cccnc5)n4)c3)cc(C(F)(F)F)c2)cn1` [nilotinib], the log2 fold change is inactive: -0.13.

Regarding `CNc1nc(-c2ccc3c(N)n[nH]c3c2)cc(N2C[C@@H](C(=O)NC3CCCCC3)CC[C@H]2C)n1`, the log2 fold change was inactive: -0.219.

On to `Cc1ncc(-c2ccnc(Nc3ccc(S(C)(=O)=O)cc3)n2)n1C(C)C`, for which the log2 fold change is inactive: -0.035.

Regarding `CO[C@H]1C[C@@H]2CC[C@@H](C)[C@@](O)(O2)C(=O)C(=O)N2CCCC[C@H]2C(=O)O[C@H]([C@H](C)C[C@@H]2CC[C@H](n3cnnn3)[C@H](OC)C2)CC(=O)[C@H](C)/C=C(\C)[C@@H](O)[C@@H](OC)C(=O)[C@H](C)C[C@H](C)/C=C/C=C/C=C/1C` [zotarolimus], the log2 fold change is inactive: -0.128.

On to `Cn1c2cc(S(C)=O)sc2c2cnn(Cc3cccc(N)c3)c(=O)c21` (configuration not stated), for which the log2 fold change is inactive: 0.013.

For `COc1cc2ncnc(Nc3ccc(F)c(Cl)c3)c2cc1OCCCN1CCOCC1` [gefitinib], the log2 fold change was inactive: 0.005.

For `CC(C)c1cnn2c(NCc3ccccc3)cc(NCCCCCCN)nc12`, the log2 fold change was inactive: 0.12.

For the compound `NC(=O)c1ccc2nc(-c3ccc(Oc4ccc(Cl)cc4)cc3)[nH]c2c1`, the log2 fold change was inactive: -0.022.

For the next experiment, the target named is ZNRD2 (UniProt G3V1B8). The description is as above. Summed up: as §1
For `O=C1NC(=O)C(c2cnc3ccccn23)=C1c1cn2c3c(cc(F)cc13)CN(C(=O)N1CCCCC1)CC2`, the log2 fold change is inactive: -0.286.

As for `Cc1cc(Nc2cc(N3CCN(C)CC3)nc(Sc3ccc(NC(=O)C4CC4)cc3)n2)n[nH]1` [tozasertib], the log2 fold change was inactive: 0.01.

Take `CC(C)(O)CC(=O)NCCn1ccc2ncnc(Nc3ccc(Oc4cccc(C(F)(F)F)c4)c(Cl)c3)c21`: the log2 fold change is inactive: -0.114.

On to `O=C(Nc1cccc(Nc2ncc(Br)c(NCCc3cnc[nH]3)n2)c1)N1CCCC1`, for which the log2 fold change is inactive: -0.024.

In the case of `NC1(Cc2ccc(Cl)cc2)CCN(c2ncnc3[nH]ccc23)CC1`, the log2 fold change is inactive: 0.037.

As for `CC[C@H](C)[C@H](NC(=O)[C@H]([C@@H](C)CC)N(C)C(C)=O)C(=O)N[C@H](C(=O)N[C@@H](CC(C)C)C(=O)[C@@]1(C)CO1)[C@@H](C)O` [epoxomicin], the log2 fold change was inactive: 0.199.

For `Fc1ccc(Cl)cc1-c1nc(Nc2ccncc2)c2nccnc2n1`, the log2 fold change is inactive: 0.162.

On to `CN1CCc2c(c3ccccc3n2Cc2ccc(C(=O)NO)cc2)C1` [Tubastatin A], for which the log2 fold change is inactive: 0.064.

As for `CNC(=O)c1ccccc1Nc1nc(Nc2ccc(N3CCOCC3)cc2OC)ncc1Cl`, the log2 fold change is inactive: -0.14.

For `CCCCN(Cc1ccc(C(=O)NO)cc1)C(=O)Nc1ccccc1` [Nexturastat A], the log2 fold change was inactive: 0.143.

In the case of `Cc1ccc2c(=O)c3ccccc3n(CCCN)c2c1C`, the log2 fold change was inactive: 0.099.

On to `C[C@@H]1COCCN1c1cc(C2(S(C)(=O)=O)CC2)nc(-c2cccc3[nH]ccc23)n1`, for which the log2 fold change was inactive: 0.08.

As to `CC(C)c1cnn2c(NCc3ccccc3)cc(NCCCCCCN)nc12`, the log2 fold change was inactive: 0.229.

Consider `NC(=O)c1ccc2nc(-c3ccc(Oc4ccc(Cl)cc4)cc3)[nH]c2c1`, for which the log2 fold change is inactive: -0.012.

The next experiment addresses ZNRD2 (UniProt O60232). The experiment is described as above. Summed up: as §1
For the compound `CN1CC[C@H](c2c(O)cc(O)c3c(=O)cc(-c4ccccc4Cl)oc23)[C@H](O)C1` [alvocidib], the log2 fold change is inactive: -0.034.

Turning to `Cc1cc(SCc2sc(-c3ccc(C(F)(F)F)cc3)nc2C)ccc1OCC(=O)O`, the log2 fold change is inactive: 0.023.

As for `O=C1NC(=O)C(c2cnc3ccccn23)=C1c1cn2c3c(cc(F)cc13)CN(C(=O)N1CCCCC1)CC2`, the log2 fold change is inactive: -0.053.

Take `CC[C@H](C)n1cc(C)c2c(C(=O)NCc3c(C)cc(C)[nH]c3=O)cc(-c3ccc(N4CCNCC4)nc3)cc21`: the log2 fold change is inactive: -0.028.

Turning to `Cn1cc(-c2ccc3c(c2)CCN3C(=O)Cc2cccc(C(F)(F)F)c2)c2c(N)ncnc21`, the log2 fold change was inactive: 0.075.

Turning to `Cc1cc(Nc2cc(N3CCN(C)CC3)nc(Sc3ccc(NC(=O)C4CC4)cc3)n2)n[nH]1` [tozasertib], the log2 fold change was inactive: 0.05.

As to `CC(C)(O)CC(=O)NCCn1ccc2ncnc(Nc3ccc(Oc4cccc(C(F)(F)F)c4)c(Cl)c3)c21`, the log2 fold change was inactive: -0.051.

As for `O=C(Nc1cccc(Nc2ncc(Br)c(NCCc3cnc[nH]3)n2)c1)N1CCCC1`, the log2 fold change was inactive: -0.024.

In the case of `C[C@H](Nc1ncnc2nc[nH]c12)c1cc2cccc(Cl)c2c(=O)n1-c1ccccc1` [duvelisib], the log2 fold change is inactive: 0.162.

In the case of `C[C@@H](N)c1ccc(C(=O)Nc2ccnc3[nH]ccc23)cc1`, the log2 fold change is inactive: -0.061.

For `NC1(Cc2ccc(Cl)cc2)CCN(c2ncnc3[nH]ccc23)CC1`, the log2 fold change was inactive: -0.04.

Regarding `CC[C@H](C)[C@H](NC(=O)[C@H]([C@@H](C)CC)N(C)C(C)=O)C(=O)N[C@H](C(=O)N[C@@H](CC(C)C)C(=O)[C@@]1(C)CO1)[C@@H](C)O` [epoxomicin], the log2 fold change was inactive: 0.25.

Take `Fc1ccc(Cl)cc1-c1nc(Nc2ccncc2)c2nccnc2n1`: the log2 fold change is inactive: 0.227.

As for `CN1CCc2c(c3ccccc3n2Cc2ccc(C(=O)NO)cc2)C1` [Tubastatin A], the log2 fold change was inactive: -0.024.

Consider `CC1=C(C(=O)Nc2cc3cn[nH]c3cc2F)C(c2ccc(C(F)(F)F)cc2)CC(=O)N1` (configuration not stated), for which the log2 fold change is inactive: 0.044.

Take `Cc1nc(Nc2n[nH]c3c2CN(C(=O)N[C@H](CN(C)C)c2ccccc2)C3(C)C)c2sccc2n1`: the log2 fold change was inactive: 0.018.

Regarding `CNC(=O)c1ccccc1Nc1nc(Nc2ccc(N3CCOCC3)cc2OC)ncc1Cl`, the log2 fold change is inactive: -0.02.

Turning to `CCCCN(Cc1ccc(C(=O)NO)cc1)C(=O)Nc1ccccc1` [Nexturastat A], the log2 fold change is inactive: 0.002.

As for `Cc1nc(Nc2ncc(C(=O)Nc3c(C)cccc3Cl)s2)cc(N2CCN(CCO)CC2)n1` [dasatinib], the log2 fold change is inactive: 0.058.

For the compound `Cc1ccc2c(=O)c3ccccc3n(CCCN)c2c1C`, the log2 fold change is inactive: 0.164.

For `CN1CCN(CCOc2cc(OC3CCOCC3)c3c(Nc4c(Cl)ccc5c4OCO5)ncnc3c2)CC1` [saracatinib], the log2 fold change is inactive: -0.026.

With `C[C@@H]1COCCN1c1cc(C2(S(C)(=O)=O)CC2)nc(-c2cccc3[nH]ccc23)n1`, the log2 fold change is inactive: 0.094.

On to `Cc1cn(-c2cc(NC(=O)c3ccc(C)c(Nc4nccc(-c5cccnc5)n4)c3)cc(C(F)(F)F)c2)cn1` [nilotinib], for which the log2 fold change is inactive: -0.019.

With `CNc1nc(-c2ccc3c(N)n[nH]c3c2)cc(N2C[C@@H](C(=O)NC3CCCCC3)CC[C@H]2C)n1`, the log2 fold change is inactive: 0.028.

Take `Cc1ncc(-c2ccnc(Nc3ccc(S(C)(=O)=O)cc3)n2)n1C(C)C`: the log2 fold change is inactive: -0.019.

As for `CO[C@H]1C[C@@H]2CC[C@@H](C)[C@@](O)(O2)C(=O)C(=O)N2CCCC[C@H]2C(=O)O[C@H]([C@H](C)C[C@@H]2CC[C@H](n3cnnn3)[C@H](OC)C2)CC(=O)[C@H](C)/C=C(\C)[C@@H](O)[C@@H](OC)C(=O)[C@H](C)C[C@H](C)/C=C/C=C/C=C/1C` [zotarolimus], the log2 fold change was inactive: 0.006.

For `Cn1c2cc(S(C)=O)sc2c2cnn(Cc3cccc(N)c3)c(=O)c21` (configuration not stated), the log2 fold change was inactive: -0.059.

Take `COc1cc2ncnc(Nc3ccc(F)c(Cl)c3)c2cc1OCCCN1CCOCC1` [gefitinib]: the log2 fold change was inactive: 0.014.

For the compound `CC(C)c1cnn2c(NCc3ccccc3)cc(NCCCCCCN)nc12`, the log2 fold change is inactive: 0.045.

Take `NC(=O)c1ccc2nc(-c3ccc(Oc4ccc(Cl)cc4)cc3)[nH]c2c1`: the log2 fold change is inactive: 0.023.
